The experiment deals with B6C3F1 mice, B16 melanoma ip, median survival T/C. Briefly: NCI In Vivo Anticancer Drug Screen. Data for tumor model B16 Melanoma (intraperitoneal) in B6C3F1 mice. Conditions: T/C endpoint: median survival time, higher T/C = longer survival. As to the method:
The antitumor activity of compounds was measured in mice bearing transplantable tumors. Survival or tumor size were measured and the results are expressed as the measurement made in the treated group (T) divided by the measurement made in the vehicle treated control group (C). The tumor model used in this assay is B16 Melanoma (intraperitoneal) in B6C3F1 mice

[1] abbreviates: dose: 5.0 mg/kg/injection, schedule: Q01DX009 (ip), vehicle: water.
The mark [2] stands for this setting: dose: 10.0 mg/kg/injection, schedule: Q01DX009 (ip), vehicle: water.
[3] abbreviates: dose: 20.0 mg/kg/injection, schedule: Q01DX009 (ip), vehicle: water.
Where [4] appears, read: dose: 40.0 mg/kg/injection, schedule: Q01DX009 (ip), vehicle: water.
The mark [5] stands for this setting: dose: 50.0 mg/kg/injection, schedule: Q01DX009 (ip), vehicle: saline with Tween-80.
Setting [6] is: dose: 100.0 mg/kg/injection, schedule: Q01DX009 (ip), vehicle: saline with Tween-80.
[7] abbreviates: dose: 200.0 mg/kg/injection, schedule: Q01DX009 (ip), vehicle: saline with Tween-80.
[8] abbreviates: dose: 400.0 mg/kg/injection, schedule: Q01DX009 (ip), vehicle: saline with Tween-80.
Where [9] appears, read: dose: 12.5 mg/kg/injection, schedule: Q01DX009 (ip), vehicle: saline with Tween-80.
Where [10] appears, read: dose: 25.0 mg/kg/injection, schedule: Q01DX009 (ip), vehicle: saline with Tween-80.
The mark [11] stands for this setting: dose: 200.0 mg/kg/injection, schedule: Q01DX009 (ip), vehicle: saline.
The mark [12] stands for this setting: dose: 400.0 mg/kg/injection, schedule: Q01DX009 (ip), vehicle: saline.
[13] abbreviates: dose: 400.0 mg/kg/injection, schedule: Q01DX009 (ip), vehicle: Klucel (hydroxypropylcellulose) (HPC).
[14] abbreviates: dose: 6.25 mg/kg/injection, schedule: Q01DX009 (ip), vehicle: Klucel (hydroxypropylcellulose) (HPC).
[15] abbreviates: dose: 12.0 mg/kg/injection, schedule: Q01DX009 (ip), vehicle: Klucel (hydroxypropylcellulose) (HPC).

The list is a part of this screen's results and no random one: it is rich in T/C values a quarter to a half above the control, in often repeated tests (any T/C) and in doses without a T/C. Other doses and runs of a compound stand elsewhere. T/C: endpoint of the treated group in % of that of the vehicle group. Some entries give survivors of the animals treated and no T/C: the source holds a T/C of zero for them, seemingly a mark for toxic or unscored doses. Some doses without a T/C left all or most animals alive at the check, yet need not have been tolerated: survival well below the control is almost never listed, so the zero probably covers shortened survival too. Counts of survivors are from the toxicity check (mostly the fifth day) where no day follows; animals may have died later. Schedules are NCI's codes, taken here to give the interval after Q, in days (D) or hours (H), and the number of doses after X. Brackets with × give the number of equal values in this list. Some entries hold several experiments; the results are listed from low to high. For survival time, this PubChem deposit counts one and a half times the control or more as active, and values a quarter to a half above the control carry no call in these data; other NCI protocols may use other cut-offs. Some T/C values are followed by the survivors on the day toxicity was checked, most often the fifth; without a count, all were alive then. Where a SMILES comes first, the peptide text is derived from it. The star is where a group is joined. Cbz = O=C(OCc1ccccc1)*

On to `CCOC(=O)C(CC(C)C)NC(=O)C(N)Cc1ccc(N(CCCl)CCCl)cc1` (stereo not drawn), for which the T/C is 125 % of control (dose: 2.5 mg/kg/injection, schedule: Q01DX009 (ip), vehicle: water); 111 [9 of 10 alive], 133, 157 % of control under setting [1]; 168, 174, 197 % of control under setting [2]. For the same compound, the survivor count was 9 of 10 under setting [1]; 6 of 10 under setting [2]; 0 of 10, 8 of 10, 9 of 10, 10 of 10 under setting [3]; 0 of 10 and 9 of 10 under setting [4]; 0 of 10 (dose: 80.0 mg/kg/injection, schedule: Q01DX009 (ip), vehicle: water).

As to `O=c1[nH]c(=O)n(C2CC(O)C(CO)O2)cc1I` (stereo not drawn), the T/C is 128 % of control under setting [5]; 128 [9 of 10 alive] and 138 % of control under setting [6]. Besides, the survivor count was 9 of 10 under setting [7]; 7 of 10 under setting [8]; 7 of 10 (dose: 800.0 mg/kg/injection, schedule: Q01DX009 (ip), vehicle: saline with Tween-80).

With `O=C1C2CC(Cl)C(SSC3CC4C(=O)N(SC(Cl)(Cl)C(Cl)Cl)C(=O)C4CC3Cl)CC2C(=O)N1SC(Cl)(Cl)C(Cl)Cl` (stereo not drawn), the survivor count was 10 of 10 under setting [9]; 10 of 10 under setting [10]; 10 of 10 under setting [5]; 8 of 10 under setting [6]; 0 of 10 and 9 of 10 under setting [7]; 6 of 10 under setting [8].

As for `CCc1nc(N)nc(N)c1-c1ccc(Cl)c([N+](=O)[O-])c1`, the T/C was 125 % of control [9 of 10 alive] under setting [9], 125 % of control under setting [10] and 132 % of control under setting [5].

As for `Cc1c2ccncc2c(C)c2c1[nH]c1ccccc12`, the T/C (dose: 5.0 mg/kg/injection, schedule: Q01DX009 (ip), vehicle: distilled water + Tween-80) is 132 % of control and the T/C under setting [2] is 127 % of control. Besides, the survivor count by setting is: under setting [3], 10 of 10; (dose: 40.0 mg/kg/injection, schedule: Q01DX009 (ip), vehicle: distilled water + Tween-80) 10 of 10; under setting [4], 10 of 10.

With `CCCCOCN(COCCCC)C12CC3CC(CC(C3)C1)C2`, the survivor count is 7 of 10 under setting [7] and 0 of 10 under setting [8].

With `COC1=CCC23C(=O)C=CC(=O)C2(C1)C(=O)c1ccccc1C3=O` (stereo not drawn), the survivor count under setting [10] was 10 of 10.

As to `Nc1nc2ncc(CNc3ccc(C(=O)NC(CCC(=O)O)C(=O)O)cc3)nc2c(=O)[nH]1` (stereo not drawn), the survivor count under setting [11] is recorded as 3 of 10 and the survivor count under setting [12] is 0 of 10.

Turning to `CC(C)NCC(O)COc1ccc(O)c(O)c1` (stereo not drawn), the survivor count runs as follows: under setting [11], 5 of 10 and 7 of 10; under setting [12], 0 of 10.

In the case of `COc1cccc2c1C(=O)c1c(O)c3c(c(O)c1C2=O)C[C@@](O)(C(C)=O)C[C@@H]3OC1CC(N(C)Cc2ccccc2)C(O)C(C)O1` (stereo partly drawn), the T/C runs as follows: (dose: 6.25 mg/kg/injection, schedule: Q01DX001 (ip), vehicle: distilled water + Tween-80) 128 % of control; (dose: 25.0 mg/kg/injection, schedule: Q01DX001 (ip), vehicle: distilled water + Tween-80) 137 % of control. The survivor count runs as follows: (dose: 50.0 mg/kg/injection, schedule: Q01DX001 (ip), vehicle: distilled water + Tween-80) 7 of 10; (dose: 100.0 mg/kg/injection, schedule: Q01DX001 (ip), vehicle: distilled water + Tween-80) 5 of 10.

As for `CCOC(=O)C(Cc1c[nH]c2ccccc12)NC(=O)C(Cc1ccccc1)NC(=O)C(Cc1cnc[nH]1)NC(=O)OCc1ccccc1` (stereo not drawn) (Cbz-His-Phe-Trp-OEt; configuration not given here), the survivor count reads like this: (dose: 100.0 mg/kg/injection, schedule: Q01DX009 (ip), vehicle: Klucel (hydroxypropylcellulose) (HPC)) 9 of 10; under setting [13], 9 of 10.

In the case of `CN1CCN(c2ccc([N+](=O)[O-])c3no[n+]([O-])c23)CC1`, under “dose: 10.0 mg/kg/injection, schedule: Q01DX009 (ip), vehicle: saline with Tween-80”, the T/C was 139 % of control. For the same compound, the survivor count runs as follows: (dose: 40.0 mg/kg/injection, schedule: Q01DX009 (ip), vehicle: saline with Tween-80) 9 of 10; (dose: 80.0 mg/kg/injection, schedule: Q01DX009 (ip), vehicle: saline with Tween-80) 5 of 10.

Turning to `CC(C)(C)C(=O)Oc1ccc(N=C(N)N)cc1`, under setting [11], the survivor count was 3 of 10.

As for `O=C1C2CC(CN3CCCCC23)C2CCCCN12` (stereo not drawn), the survivor count (dose: 300.0 mg/kg/injection, schedule: Q01DX009 (ip), vehicle: saline) is recorded as 5 of 10.

For the compound `CCN(CC)c1ccc2[nH]c3c(C(N)=O)cc(=O)c(=O)c=3oc2c1`, the survivor count under setting [5] was 7 of 10, the survivor count under setting [6] is listed as 8 of 10 and the survivor count under setting [7] is 6 of 10.

For `CCN1/C(=C/C(C)=C/c2sc3ccc4ccccc4c3[n+]2CC)Sc2ccc3ccccc3c21`, the survivor count is 10 of 10 (dose: 0.1 mg/kg/injection, schedule: Q01DX009 (ip), vehicle: saline with Tween-80); 10 of 10 (dose: 0.2 mg/kg/injection, schedule: Q01DX009 (ip), vehicle: saline with Tween-80); 10 of 10 (dose: 0.4 mg/kg/injection, schedule: Q01DX009 (ip), vehicle: saline with Tween-80); 7 of 10 (dose: 0.8 mg/kg/injection, schedule: Q01DX009 (ip), vehicle: saline with Tween-80).

As to `CCOc1ncc([N+](=O)[O-])c(OCC)n1`, the survivor count runs as follows: under setting [6], 10 of 10; under setting [8], 5 of 10 and 8 of 10.

Turning to `C[Si](C)(C)O/C=C1/CCOC1=O`, the survivor count under setting [13] is 10 of 10.

On to `O=C1[C@H]2CCC[C@H]2[C@H]2CCC[C@@H]12`, for which, under setting [7], the survivor count was 10 of 10.

For `CCCCCCC/C=C/C(=O)OC1C(OC2C(OC(CCCCCCC)CC(=O)OC(CCCCCCC)CC(=O)O)OC(C)C(O)C2O)OC(C)C(O)C1O` (stereo not drawn), under setting [14], the survivor count is 10 of 10.

For the compound `COC1CC2C=C(C)/C=C/C=C/C(=O)NC(c3ccccc3)C/C=C/CCC(O)CC(=O)C2=C1O` (stereo not drawn), the T/C was 137 % of control (dose: 3.12 mg/kg/injection, schedule: Q01DX009 (ip), vehicle: Klucel (hydroxypropylcellulose) (HPC)); 134 % of control (dose: 6.0 mg/kg/injection, schedule: Q01DX009 (ip), vehicle: Klucel (hydroxypropylcellulose) (HPC)); 143 % of control under setting [14]; 138 % of control under setting [15]. Besides, the survivor count is, setting by setting: under setting [15], 10 of 10; (dose: 24.0 mg/kg/injection, schedule: Q01DX009 (ip), vehicle: Klucel (hydroxypropylcellulose) (HPC)) 3 of 10, 6 of 10, 10 of 10; (dose: 25.0 mg/kg/injection, schedule: Q01DX009 (ip), vehicle: Klucel (hydroxypropylcellulose) (HPC)) 10 of 10 (2×); (dose: 50.0 mg/kg/injection, schedule: Q01DX009 (ip), vehicle: Klucel (hydroxypropylcellulose) (HPC)) 3 of 10.

`Cc1cc2nc3c(=O)[nH]c(=O)nc-3n(CC(O)C(O)C(O)C(O)CO)c2cc1C` (stereo not drawn): the survivor count was 10 of 10 (dose: 400.0 mg/kg/injection, schedule: Q01DX009 (ip), vehicle: suspension in saline) and 8 of 10 (dose: 800.0 mg/kg/injection, schedule: Q01DX009 (ip), vehicle: suspension in saline).

With `CC1=CC(=O)C(O)C2(C)C1CC1OC(=O)C(OC(=O)CC(C)(C)O)C3C(C)C(O)C4(O)OCC13C42` (stereo not drawn), the survivor count (dose: 8.0 mg/kg/injection, schedule: Q01DX009 (ip), vehicle: saline + alcohol) is recorded as 6 of 10.

(Values after PubChem BioAssay AID200 (DTP/NCI, 2004).)
